Screening data, single-dose tests

By UniProt entry, the sequences of proteins in these tests, tags left out. Residues count along the entry.
UniProt Q8IDJ8, 1-583: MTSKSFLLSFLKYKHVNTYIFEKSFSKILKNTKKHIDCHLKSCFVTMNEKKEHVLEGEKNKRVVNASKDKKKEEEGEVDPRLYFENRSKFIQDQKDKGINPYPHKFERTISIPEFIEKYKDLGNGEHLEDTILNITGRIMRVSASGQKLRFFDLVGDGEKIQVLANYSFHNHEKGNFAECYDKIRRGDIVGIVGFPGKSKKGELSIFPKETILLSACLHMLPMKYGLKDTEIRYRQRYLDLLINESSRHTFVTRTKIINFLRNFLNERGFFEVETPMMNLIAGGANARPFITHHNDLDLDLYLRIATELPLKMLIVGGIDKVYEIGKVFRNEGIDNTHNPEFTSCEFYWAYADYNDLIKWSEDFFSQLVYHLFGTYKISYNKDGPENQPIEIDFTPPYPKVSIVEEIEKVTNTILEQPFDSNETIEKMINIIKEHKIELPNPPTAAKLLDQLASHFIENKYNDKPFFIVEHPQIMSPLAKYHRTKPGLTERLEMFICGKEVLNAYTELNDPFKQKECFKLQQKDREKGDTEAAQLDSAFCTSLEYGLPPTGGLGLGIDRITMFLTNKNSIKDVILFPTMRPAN

Measurements from “University of Dundee, Small-Polar-MMV Screening Library” (2021), ChEMBL document CHEMBL3988442.

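Lysine-tRNA ligase, Plasmodium falciparum 3D7 (UniProt Q8IDJ8). Enzyme assay of the cytosolic lysyl-tRNA synthetase in 384-well plates, read by luminescence. Compounds at 30 µM. Direction is inferred from only a few compounds that gave an IC50; most scored high, so higher reads as stronger inhibition. Size under these conditions: about 69,000 compounds, about 49 of them at 50% or above in at least one test.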

Each number is a percent effect as filed.
The controls that fix the scale are not given in the record; negative values are as filed.
This is an unselected part of the compounds tested.

compound,Percent Effect
COc1ccc(C(=O)C2CCCN(Cc3cccc(F)c3)C2)c(OC)c1 (centres unmarked),0.3314%
CCCc1noc(CCCC(=O)N2CCCC(n3ccnc3C)C2)n1 (centres unmarked),4.303%
Cc1noc(CNc2ccc(C(=O)N3CCCC(C)C3)cc2C)n1 (centres unmarked),0.6669%
Cc1noc([C@@]23CCO[C@@H]2CCN(C(=O)c2c(C)noc2C)C3)n1,5.535%
Cc1nnc2n1CCN(CC(O)CN1CCC(C)CC1)C2 (centres unmarked),5.926%
Cc1cccc(CNC(=O)c2cccnc2N)c1,4.599%
CCc1cnc(N)nc1NCCCn1nc(C)nc1C,2.604%
COc1cccc(-c2c[nH]c(C3CCCN3)n2)c1 (centres unmarked),4.333%
CCn1cc(CN2CCCN(C(=O)c3ccoc3C)CC2)cn1,-2.452%
O=C(c1cc(C2CC2)on1)N1CCCC(n2cncn2)C1 (centres unmarked),2.438%
CC(=O)N[C@H]1C[C@@H](c2nc(-c3ccc4c(c3)OCO4)no2)N(C)C1,9.09%
CCn1cc2c(n1)CN(CC1CC1)CC2COCC1CC1 (centres unmarked),5.517%
Cc1cccnc1CNCC1(O)CCCN(Cc2ccc(F)cc2)C1=O (centres unmarked),5.252%
CC(O)c1cccc(Nc2nc(NCCO)c3ccccc3n2)c1 (centres unmarked),2.659%
O=C(NCCc1nc(-c2ccccn2)no1)c1ccc(C2CCCO2)s1 (centres unmarked),-0.04583%
Cc1noc(NCc2cn(C)nc2-c2ccncc2)n1,4.144%
CS(=O)(=O)N1CCN(CC(=O)Nc2cccc(Cl)c2)CC1,7.349%
O=C(NC1CC1)N1CCc2ccc(=O)n(CCN3CCCC3)c2CC1,-1.152%
Cc1ncc(S(=O)(=O)Nc2ccnn2C2CCCCC2)[nH]1,5.198%
Cc1nc(CO[C@@H]2CN(Cc3ccc(F)cc3)[C@@H]3COC[C@@H]32)cs1,3.695%
CNS(=O)(=O)c1cccc(CNC(=O)c2cnn(C)c2C)c1,1.034%
CCOc1ccc(-c2ccnc(CC)n2)cc1C(=O)O,-0.9944%
Nc1cc2c(nn1)CCN(C(=O)c1cccc3c1OCO3)C2,-0.7746%
c1ccc2c(Cc3nnc([C@H]4CCNC4)o3)c[nH]c2c1,0.7678%
CNS(=O)(=O)c1cccc(CNc2ccc(C(F)(F)F)nn2)c1,10.48%
COC(=O)c1cc2c(=O)n(C3CC3)ccc2nc1C,-3.952%
c1ncn(CC2CCCCN2Cc2cn3ccsc3n2)n1 (centres unmarked),-0.502%
CN1CCCN(C[C@@H]2CN(c3nc(C(N)=O)cs3)C[C@@H]2CO)CC1,0.6878%
Cc1nc2c(c(NCc3ccccc3)n1)CCN(C(=O)C1CCC1)CC2,10.18%
Cc1ccccc1OCn1ccc(C(=O)NCCN2CCOCC2)n1,0.4343%
Cc1noc(NCc2cc(F)ccc2F)n1,-0.4798%
Cc1ccc(NC(=O)c2nc(N3CCCCC3)ncc2Cl)cc1I,1.696%
CCn1cncc1C1CC(=O)Nc2c1c(C)nn2C (centres unmarked),3.919%
Cc1cccc2c1nc(CCO)n2-c1ccc(C(=O)N2CCOCC2)o1,0.7606%
Cc1nc(C2CCCN2C(=O)c2ccccc2)ncc1C(N)=O (centres unmarked),7.019%
Nc1ncccc1CN1C[C@H]2OC(=O)N(Cc3ccccn3)[C@H]2C1,-0.8937%
CC(C)(CNC(=O)Nc1ccc(S(=O)(=O)C(F)F)cc1)N1CCOCC1,6.846%
O=C(c1ccccn1)N1C[C@@H]2CC[C@H](C1)N(C(=O)CCc1cccs1)C2,0.6785%
COCC(C)NC(=O)c1cc(Br)c2c(c1)OCCO2 (centres unmarked),1.711%
CC(O)CC(C)(C)CNS(=O)(=O)c1cccc(Cl)c1C#N (centres unmarked),2.685%
CCOCCN1CCN(Cc2nc(CC(C)C)no2)CC1,0.5604%
CC(C)c1nccc([C@H]2C[C@@H]3CCN(Cc4ccoc4)C[C@H]3O2)n1,1.615%
CCOC(C)C(=O)N(C)C1CCN(c2ccc(OC)cc2)CC1 (centres unmarked),9.398%
Cc1ccc(CNCc2cc(Br)c3c(c2)OCO3)cc1,0.373%
O=C(NCCc1ccncc1)c1cccc(S(=O)(=O)NC2CC2)c1,7.747%
CC(=O)N1CCCC1c1nc(C)cc(-c2ccc(F)cc2)n1 (centres unmarked),3.04%
CCCn1cc(NC(=O)c2cccc(CN3CC=CC3)c2)nn1,-4.731%
CN1CCOCC2(CCCN(C(=O)Cc3ccncc3)C2)C1 (centres unmarked),5.195%
CNc1nc2c(c(C(=O)N3CCCC3)n1)CN(C(=O)c1cccs1)CC2,3.178%
Cc1cc(C)n(CC2CN(c3ncnc4[nH]ccc34)CCO2)n1 (centres unmarked),2.698%
CC(=O)NC1CCN(c2nc(C)nc3c2c(C)nn3C)C1 (centres unmarked),-1.916%

For reference, 4 entries once more:

Result for CN1CCOCC2(CCCN(C(=O)Cc3ccncc3)C2)C1 (centres unmarked) was 5.195%.
Result for Cc1noc(NCc2cc(F)ccc2F)n1 was -0.4798%.
Result for Cc1noc([C@@]23CCO[C@@H]2CCN(C(=O)c2c(C)noc2C)C3)n1 was 5.535%.
Result for CCc1cnc(N)nc1NCCCn1nc(C)nc1C was 2.604%.